From PMC1599745
Results are given in words; binding and its absence hold for the method and conditions named. In cells and extracts the contact can be indirect. Some results given as binding are weak or reduced against the parent protein; the word gives no strength.

Protein sequences, listed by entry. Tags and fused reporters are not part of them.
UniProt P50750: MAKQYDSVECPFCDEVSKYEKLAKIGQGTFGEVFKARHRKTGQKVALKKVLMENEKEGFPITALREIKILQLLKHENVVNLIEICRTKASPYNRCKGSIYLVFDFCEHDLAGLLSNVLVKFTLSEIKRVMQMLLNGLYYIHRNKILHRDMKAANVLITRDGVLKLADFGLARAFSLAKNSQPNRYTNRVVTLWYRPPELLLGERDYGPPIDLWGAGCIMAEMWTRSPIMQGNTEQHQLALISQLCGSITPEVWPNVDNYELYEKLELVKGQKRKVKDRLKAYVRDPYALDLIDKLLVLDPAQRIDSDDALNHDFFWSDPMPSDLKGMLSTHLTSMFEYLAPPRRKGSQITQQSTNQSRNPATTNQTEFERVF
UniProt O94992: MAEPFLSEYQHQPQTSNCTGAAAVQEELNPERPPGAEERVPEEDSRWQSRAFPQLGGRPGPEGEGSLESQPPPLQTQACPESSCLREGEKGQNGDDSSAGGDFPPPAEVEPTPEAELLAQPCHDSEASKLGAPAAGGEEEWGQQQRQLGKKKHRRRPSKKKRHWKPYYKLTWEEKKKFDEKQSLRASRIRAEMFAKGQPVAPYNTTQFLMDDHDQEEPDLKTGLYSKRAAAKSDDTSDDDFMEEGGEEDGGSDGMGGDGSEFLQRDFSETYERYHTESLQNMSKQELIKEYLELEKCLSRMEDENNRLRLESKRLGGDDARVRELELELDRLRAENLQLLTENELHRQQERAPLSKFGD

Target: Cyclin-dependent kinase-9 (CDK9) (human (endogenous in primary CD4+ T cells)) (UniProt P50750)
Assay: co-IP; immunoprecipitation with anti-CDK9 antibodies/antiserum from extracts of resting CD4+ T cells cultured 48 h in DMSO or prostratin (250 ng/ml); lysis in EBCD buffer (50 mM Tris-HCl pH 8.0, 120 mM NaCl, 0.5% NP-40, 5 mM dithiothreitol) with protease and ribonuclease inhibitors; extract amounts adjusted to precipitate equivalent CDK9; immunoblot of the precipitates

HEXIM1 protein (from UniProt O94992 1-359)
binding: binds
